2 substances from publication PMC5112875 can be followed below.

Sequences of proteins named here, by UniProt entry; tags and fusion partners are left off. A change or cut given only in a name is not applied to a line headed by its entry. Residues count along the entry.
UniProt Q8R493, residues 21-495: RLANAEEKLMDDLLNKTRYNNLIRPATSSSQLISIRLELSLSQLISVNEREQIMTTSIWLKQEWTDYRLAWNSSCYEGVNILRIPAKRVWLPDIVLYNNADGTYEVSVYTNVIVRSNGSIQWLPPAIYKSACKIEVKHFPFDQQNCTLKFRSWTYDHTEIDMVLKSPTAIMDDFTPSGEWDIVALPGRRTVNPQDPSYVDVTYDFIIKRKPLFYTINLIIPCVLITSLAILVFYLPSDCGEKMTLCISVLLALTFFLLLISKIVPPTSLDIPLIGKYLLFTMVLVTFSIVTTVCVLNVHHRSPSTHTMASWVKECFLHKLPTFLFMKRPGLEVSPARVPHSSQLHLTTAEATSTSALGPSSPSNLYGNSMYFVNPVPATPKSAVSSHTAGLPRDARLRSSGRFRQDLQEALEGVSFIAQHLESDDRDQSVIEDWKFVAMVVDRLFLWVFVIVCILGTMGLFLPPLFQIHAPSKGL
UniProt O70174, residues 31-629: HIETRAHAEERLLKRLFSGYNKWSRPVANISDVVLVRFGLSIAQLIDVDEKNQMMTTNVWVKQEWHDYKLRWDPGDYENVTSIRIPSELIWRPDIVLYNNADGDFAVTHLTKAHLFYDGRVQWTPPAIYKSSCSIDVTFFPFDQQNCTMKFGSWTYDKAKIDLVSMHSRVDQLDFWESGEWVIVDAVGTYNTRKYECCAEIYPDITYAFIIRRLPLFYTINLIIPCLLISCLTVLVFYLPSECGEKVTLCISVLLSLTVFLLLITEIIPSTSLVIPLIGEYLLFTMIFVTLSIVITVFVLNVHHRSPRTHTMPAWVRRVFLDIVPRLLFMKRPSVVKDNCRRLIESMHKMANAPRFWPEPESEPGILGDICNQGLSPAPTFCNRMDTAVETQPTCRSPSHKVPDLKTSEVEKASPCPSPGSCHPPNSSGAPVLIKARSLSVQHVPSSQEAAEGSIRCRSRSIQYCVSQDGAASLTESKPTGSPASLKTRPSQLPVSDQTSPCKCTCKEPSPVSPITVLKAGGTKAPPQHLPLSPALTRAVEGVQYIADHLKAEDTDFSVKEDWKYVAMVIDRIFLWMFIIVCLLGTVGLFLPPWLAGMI
UniProt Q8R4G9, residues 26-499: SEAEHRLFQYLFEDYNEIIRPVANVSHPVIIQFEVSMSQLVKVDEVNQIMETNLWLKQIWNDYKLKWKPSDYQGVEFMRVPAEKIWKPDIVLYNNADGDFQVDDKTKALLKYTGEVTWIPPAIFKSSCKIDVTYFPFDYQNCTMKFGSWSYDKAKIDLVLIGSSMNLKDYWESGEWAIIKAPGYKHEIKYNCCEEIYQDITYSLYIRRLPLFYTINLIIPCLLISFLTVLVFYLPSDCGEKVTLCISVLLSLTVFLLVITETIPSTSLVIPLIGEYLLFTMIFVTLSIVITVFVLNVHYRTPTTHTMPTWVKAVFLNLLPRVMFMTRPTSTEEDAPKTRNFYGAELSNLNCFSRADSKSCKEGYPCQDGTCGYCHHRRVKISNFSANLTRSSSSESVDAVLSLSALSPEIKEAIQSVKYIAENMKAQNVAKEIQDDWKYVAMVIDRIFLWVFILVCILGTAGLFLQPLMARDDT
UniProt Q9ERK7: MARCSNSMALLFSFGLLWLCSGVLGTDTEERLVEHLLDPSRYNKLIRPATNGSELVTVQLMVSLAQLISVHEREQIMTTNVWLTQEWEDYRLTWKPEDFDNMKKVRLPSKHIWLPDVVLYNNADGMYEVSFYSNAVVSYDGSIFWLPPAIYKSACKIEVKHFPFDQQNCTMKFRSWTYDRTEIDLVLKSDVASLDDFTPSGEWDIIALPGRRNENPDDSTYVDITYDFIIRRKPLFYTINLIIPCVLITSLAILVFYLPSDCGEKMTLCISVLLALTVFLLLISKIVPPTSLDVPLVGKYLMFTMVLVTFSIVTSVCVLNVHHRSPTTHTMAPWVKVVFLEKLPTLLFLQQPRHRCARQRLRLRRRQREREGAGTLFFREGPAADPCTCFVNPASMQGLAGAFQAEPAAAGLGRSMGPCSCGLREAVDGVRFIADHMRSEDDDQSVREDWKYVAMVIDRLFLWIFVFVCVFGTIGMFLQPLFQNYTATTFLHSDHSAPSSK

Assay [1] deals with β4 nAChR subunit (mouse (endogenous in STC-1)) (UniProt Q8R493). Description: co-IP; 1 mg STC-1 cell extract in modified radio-immunoprecipitation assay buffer (50 mM Tris-Cl pH 7.4, 1% Nonidet P-40, 150 mM NaCl, 1 mM EDTA) with 2 μg subunit antibody for 2 h at 4°C, Protein A/G-plus agarose overnight at 4°C; Western blot; IgG as negative control. In general terms: In western blotting, separated proteins are transferred to a membrane and probed.

Assay [2] deals with α4 nAChR subunit (mouse (endogenous in STC-1)) (UniProt O70174). The description is as above.

Results are given in words; binding and its absence hold for the method and conditions named. In cells and extracts the contact can be indirect. Some entries that bind do so weakly or less than the wild type.

Consider “α3 nAChR subunit (from UniProt Q8R4G9 26-499) (receptor)”, for which the binding entry in assay [1] is listed as “binds”.

Consider “β2 nAChR subunit (from UniProt Q9ERK7 26-501) (receptor)”, for which the binding entry in assay [2] was “binds”.
